Assay results taken from publication PMC9484695, “The evolutionary conserved proteins CEP90, FOPNL, and OFD1 recruit centriolar distal appendage proteins to initiate their assembly” (PLoS Biology, 2022).
No constants are given. Whether binding was seen depends on the method and setting. Some results given as binding are weak or reduced against the parent protein; the word gives no strength. Tags and fused reporters may be left off the sequences shown.

Key:
MNR-GFP [1] = target: T1, MNR-GFP (UniProt Q2KHM9); test: microtubule recruitment (displacement) assay; U2OS cotransfected with MNR-GFP (on microtubules, bait) and myc-FOPNL, OFD1 mCherry or CEP90, 24 h; localisation of the co-overexpressed protein read by microscopy
T1 sequence: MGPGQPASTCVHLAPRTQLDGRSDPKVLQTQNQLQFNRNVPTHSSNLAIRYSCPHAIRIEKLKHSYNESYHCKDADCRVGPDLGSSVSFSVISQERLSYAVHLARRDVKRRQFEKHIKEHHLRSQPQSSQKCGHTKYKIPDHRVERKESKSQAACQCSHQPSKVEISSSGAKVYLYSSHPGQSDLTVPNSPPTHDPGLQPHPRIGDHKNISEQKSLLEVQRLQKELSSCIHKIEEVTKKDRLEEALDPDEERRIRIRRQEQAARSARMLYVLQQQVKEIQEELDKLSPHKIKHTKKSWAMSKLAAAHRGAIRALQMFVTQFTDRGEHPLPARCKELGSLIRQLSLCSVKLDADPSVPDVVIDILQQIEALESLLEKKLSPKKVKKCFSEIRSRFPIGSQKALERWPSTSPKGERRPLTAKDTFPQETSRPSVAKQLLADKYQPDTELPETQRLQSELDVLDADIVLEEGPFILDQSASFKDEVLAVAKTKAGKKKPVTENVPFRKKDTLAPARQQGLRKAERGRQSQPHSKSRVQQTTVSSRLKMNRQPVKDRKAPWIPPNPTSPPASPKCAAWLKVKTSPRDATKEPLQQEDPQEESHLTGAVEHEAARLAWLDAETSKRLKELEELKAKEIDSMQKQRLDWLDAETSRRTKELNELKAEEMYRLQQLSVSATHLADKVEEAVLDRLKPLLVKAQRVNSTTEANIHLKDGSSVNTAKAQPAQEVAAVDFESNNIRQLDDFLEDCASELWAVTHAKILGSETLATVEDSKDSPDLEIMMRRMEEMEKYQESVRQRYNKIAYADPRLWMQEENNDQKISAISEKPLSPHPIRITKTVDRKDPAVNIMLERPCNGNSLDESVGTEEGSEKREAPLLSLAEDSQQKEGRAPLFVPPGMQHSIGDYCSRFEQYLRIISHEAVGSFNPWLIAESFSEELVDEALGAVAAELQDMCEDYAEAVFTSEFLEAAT

MNR-GFP [2] = target: T1, MNR-GFP; test: microtubule recruitment (displacement) assay; U2OS cotransfected with MNR-GFP and CEP90, OFD1 mCherry or myc-FOPNL, 24 h; endogenous OFD1, CEP90, CEP83, CEP89, CEP164 stained; percent of cells with the endogenous protein on microtubules, 100 < N < 150 cells per condition, 3 experiments

binding (MNR-GFP [1]) | binding (MNR-GFP [2]) | Binder
binds | – | myc-FOPNL (protein, UniProt Q96NB1 1-174) MATVAELKAVLKDTLEKKGVLGHLKARIRAEVFNALDDDREPRPSLSHENLLINELIREYLEFNKYKYTASVLIAESGQPVVPLDRQFLIHELNAFEESKDNTIPLLYGILAHFLRGTKDGIQNAFLKGPSLQPSDPSLGRQPSRRKPMDDHLRKEEQKSTNIEDLHVSQAVNR
binds | – | OFD1-mcherry (protein, UniProt O75665 1-1012) MMAQSNMFTVADVLSQDELRKKLYQTFKDRGILDTLKTQLRNQLIHELMHPVLSGELQPRSISVEGSSLLIGASNSLVADHLQRCGYEYSLSVFFPESGLAKEKVFTMQDLLQLIKINPTSSLYKSLVSGSDKENQKGFLMHFLKELAEYHQAKESCNMETQTSSTFNRDSLAEKLQLIDDQFADAYPQRIKFESLEIKLNEYKREIEEQLRAEMCQKLKFFKDTEIAKIKMEAKKKYEKELTMFQNDFEKACQAKSEALVLREKSTLERIHKHQEIETKEIYAQRQLLLKDMDLLRGREAELKQRVEAFELNQKLQEEKHKSITEALRRQEQNIKSFEETYDRKLKNELLKYQLELKDDYIIRTNRLIEDERKNKEKAVHLQEELIAINSKKEELNQSVNRVKELELELESVKAQSLAITKQNHMLNEKVKEMSDYSLLKEEKLELLAQNKLLKQQLEESRNENLRLLNRLAQPAPELAVFQKELRKAEKAIVVEHEEFESCRQALHKQLQDEIEHSAQLKAQILGYKASVKSLTTQVADLKLQLKQTQTALENEVYCNPKQSVIDRSVNGLINGNVVPCNGEISGDFLNNPFKQENVLARMVASRITNYPTAWVEGSSPDSDLEFVANTKARVKELQQEAERLEKAFRSYHRRVIKNSAKSPLAAKSPPSLHLLEAFKNITSSSPERHIFGEDRVVSEQPQVGTLEERNDVVEALTGSAASRLRGGTSSRRLSSTPLPKAKRSLESEMYLEGLGRSHIASPSPCPDRMPLPSPTESRHSLSIPPVSSPPEQKVGLYRRQTELQDKSEFSDVDKLAFKDNEEFESSFESAGNMPRQLEMGGLSPAGDMSHVDAAAAAVPLSYQHPSVDQKQIEEQKEEEKIREQQVKERRQREERRQSNLQEVLERERRELEKLYQERKMIEESLKIKIKKELEMENELEMSNQEIKDKSAHSENPLEKYMKIIQQEQDQESADKSSKKMVQEGSLVDTLQSSDKVESLTGFSHEELDDSW
binds | – | CEP90 (overexpressed) (protein, UniProt Q8WXW3 1-757) MSRKISKESKKVNISSSLESEDISLETTVPTDDISSSEEREGKVRITRQLIERKELLHNIQLLKIELSQKTMMIDNLKVDYLTKIEELEEKLNDALHQKQLLTLRLDNQLAFQQKDASKYQELMKQEMETILLRQKQLEETNLQLREKAGDVRRNLRDFELTEEQYIKLKAFPEDQLSIPEYVSVRFYELVNPLRKEICELQVKKNILAEELSTNKNQLKQLTETYEEDRKNYSEVQIRCQRLALELADTKQLIQQGDYRQENYDKVKSERDALEQEVIELRRKHEILEASHMIQTKERSELSKEVVTLEQTVTLLQKDKEYLNRQNMELSVRCAHEEDRLERLQAQLEESKKAREEMYEKYVASRDHYKTEYENKLHDELEQIRLKTNQEIDQLRNASREMYERENRNLREARDNAVAEKERAVMAEKDALEKHDQLLDRYRELQLSTESKVTEFLHQSKLKSFESERVQLLQEETARNLTQCQLECEKYQKKLEVLTKEFYSLQASSEKRITELQAQNSEHQARLDIYEKLEKELDEIIMQTAEIENEDEAERVLFSYGYGANVPTTAKRRLKQSVHLARRVLQLEKQNSLILKDLEHRKDQVTQLSQELDRANSLLNQTQQPYRYLIESVRQRDSKIDSLTESIAQLEKDVSNLNKEKSALLQTKNQMALDLEQLLNHREELAAMKQILVKMHSKHSENSLLLTKTEPKHVTENQKSKTLNVPKEHEDNIFTPKPTLFTKKEAPEWSKKQKMKT
– | binds | OFD1 (endogenous) (natural protein, UniProt O75665 1-1012, looked up, OFD1, endogenous human protein; source: endogenous: HEK293 Flp-In cells (BioID); Hela Kyoto lysate (co-IP); U2OS cells (microtubule recruitment assay)) MMAQSNMFTVADVLSQDELRKKLYQTFKDRGILDTLKTQLRNQLIHELMHPVLSGELQPRSISVEGSSLLIGASNSLVADHLQRCGYEYSLSVFFPESGLAKEKVFTMQDLLQLIKINPTSSLYKSLVSGSDKENQKGFLMHFLKELAEYHQAKESCNMETQTSSTFNRDSLAEKLQLIDDQFADAYPQRIKFESLEIKLNEYKREIEEQLRAEMCQKLKFFKDTEIAKIKMEAKKKYEKELTMFQNDFEKACQAKSEALVLREKSTLERIHKHQEIETKEIYAQRQLLLKDMDLLRGREAELKQRVEAFELNQKLQEEKHKSITEALRRQEQNIKSFEETYDRKLKNELLKYQLELKDDYIIRTNRLIEDERKNKEKAVHLQEELIAINSKKEELNQSVNRVKELELELESVKAQSLAITKQNHMLNEKVKEMSDYSLLKEEKLELLAQNKLLKQQLEESRNENLRLLNRLAQPAPELAVFQKELRKAEKAIVVEHEEFESCRQALHKQLQDEIEHSAQLKAQILGYKASVKSLTTQVADLKLQLKQTQTALENEVYCNPKQSVIDRSVNGLINGNVVPCNGEISGDFLNNPFKQENVLARMVASRITNYPTAWVEGSSPDSDLEFVANTKARVKELQQEAERLEKAFRSYHRRVIKNSAKSPLAAKSPPSLHLLEAFKNITSSSPERHIFGEDRVVSEQPQVGTLEERNDVVEALTGSAASRLRGGTSSRRLSSTPLPKAKRSLESEMYLEGLGRSHIASPSPCPDRMPLPSPTESRHSLSIPPVSSPPEQKVGLYRRQTELQDKSEFSDVDKLAFKDNEEFESSFESAGNMPRQLEMGGLSPAGDMSHVDAAAAAVPLSYQHPSVDQKQIEEQKEEEKIREQQVKERRQREERRQSNLQEVLERERRELEKLYQERKMIEESLKIKIKKELEMENELEMSNQEIKDKSAHSENPLEKYMKIIQQEQDQESADKSSKKMVQEGSLVDTLQSSDKVESLTGFSHEELDDSW
